Measured values published in paper doi:10.1101/2025.08.07.669166.
Like-named read-outs stand apart in the source and are kept apart here. No constants are given. Whether binding was seen depends on the method and setting. Binding seen in cells or lysates may run through a third protein. Here binding means that the protein was enriched with, or labelled near, the bait; the list need not be complete. For part of these data: Where a sequence is shown, tags or fusion partners need not be part of it.

T1: glucocorticoid receptor (human (endogenous in primary human cells, human cell lines and human PDX tumours)), P04150
T1 chain: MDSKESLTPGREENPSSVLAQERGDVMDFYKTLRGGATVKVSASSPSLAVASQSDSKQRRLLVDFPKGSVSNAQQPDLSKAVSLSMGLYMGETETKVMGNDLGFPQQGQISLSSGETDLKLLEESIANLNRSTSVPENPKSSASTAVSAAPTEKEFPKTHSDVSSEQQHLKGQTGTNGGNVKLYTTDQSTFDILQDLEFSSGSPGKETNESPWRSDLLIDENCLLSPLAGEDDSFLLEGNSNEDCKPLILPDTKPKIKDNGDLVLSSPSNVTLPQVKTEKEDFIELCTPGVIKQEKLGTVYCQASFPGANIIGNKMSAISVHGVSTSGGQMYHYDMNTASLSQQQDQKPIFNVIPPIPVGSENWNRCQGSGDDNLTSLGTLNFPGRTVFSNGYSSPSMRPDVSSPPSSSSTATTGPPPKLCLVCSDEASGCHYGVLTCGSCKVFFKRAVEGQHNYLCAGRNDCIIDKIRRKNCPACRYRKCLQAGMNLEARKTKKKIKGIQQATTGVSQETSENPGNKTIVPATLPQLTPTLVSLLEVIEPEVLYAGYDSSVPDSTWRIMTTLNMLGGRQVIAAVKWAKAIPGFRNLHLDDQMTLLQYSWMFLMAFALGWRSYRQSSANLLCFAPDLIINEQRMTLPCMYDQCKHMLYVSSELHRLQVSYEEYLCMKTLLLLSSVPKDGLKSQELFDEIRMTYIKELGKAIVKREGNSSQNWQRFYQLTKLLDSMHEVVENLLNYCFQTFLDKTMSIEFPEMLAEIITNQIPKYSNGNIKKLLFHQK


How the values were obtained:
Test in all cases: affinity purification with mass spectrometry
[1] = target: T1, glucocorticoid receptor (human …); conditions: remark: other sources report otherwise
[2] = target: glucocorticoid receptor (human (endogenous in primary human cells, human cell lines and human PDX tumours)) (UniProt P04150)
[3] = target: glucocorticoid receptor (human (endogenous in primary human cells, human cell lines and human PDX tumours)) (UniProt P04150); remark: listed apart in the source

| binding [1] | binding [2] | binding [3] | Binder |
| --- | --- | --- | --- |
| binds |  |  | RXRA, P19793 1-462 (protein) MDTKHFLPLDFSTQVNSSLTSPTGRGSMAAPSLHPSLGPGIGSPGQLHSPISTLSSPINGMGPPFSVISSPMGPHSMSVPTTPTLGFSTGSPQLSSPMNPVSSSEDIKPPLGLNGVLKVPAHPSGNMASFTKHICAICGDRSSGKHYGVYSCEGCKGFFKRTVRKDLTYTCRDNKDCLIDKRQRNRCQYCRYQKCLAMGMKREAVQEERQRGKDRNENEVESTSSANEDMPVERILEAELAVEPKTETYVEANMGLNPSSPNDPVTNICQAADKQLFTLVEWAKRIPHFSELPLDDQVILLRAGWNELLIASFSHRSIAVKDGILLATGLHVHRNSAHSAGVGAIFDRVLTELVSKMRDMQMDKTELGCLRAIVLFNPDSKGLSNPAEVEALREKVYASLEAYCKHKYPEQPGRFAKLLLRLPALRSIGLKCLEHLFFFKLIGDTPIDTFLMEMLEAPHQMT |
|  | binds | binds | FOXA1 (protein, UniProt P55317 1-472) MLGTVKMEGHETSDWNSYYADTQEAYSSVPVSNMNSGLGSMNSMNTYMTMNTMTTSGNMTPASFNMSYANPGLGAGLSPGAVAGMPGGSAGAMNSMTAAGVTAMGTALSPSGMGAMGAQQAASMNGLGPYAAAMNPCMSPMAYAPSNLGRSRAGGGGDAKTFKRSYPHAKPPYSYISLITMAIQQAPSKMLTLSEIYQWIMDLFPYYRQNQQRWQNSIRHSLSFNDCFVKVARSPDKPGKGSYWTLHPDSGNMFENGCYLRRQKRFKCEKQPGAGGGGGSGSGGSGAKGGPESRKDPSGASNPSADSPLHRGVHGKTGQLEGAPAPGPAASPQTLDHSGATATGGASELKTPASSTAPPISSGPGALASVPASHPAHGLAPHESQLHLKGDPHYSFNHPFSINNLMSSSEQQHKLDFKAYEQALQYSPYGSTLPASLPLGSASVTTRSPIEPSALEPAYYQGVYSRPVLNTS |
